Several values for one entry are separate records, joined by “and”; a condition that tells them apart may be missing. Identical values can stand only once. About 6,100 (1.1%) of roughly 580,000 compounds were called active. Inconclusive means that the source gave no clear call. Such entries were picked first, then a sample of the others. The call rests on the fitted dose curve; in most records, active means well fitted inhibition curve with a large enough effect; inconclusive means small, poorly fitted or top-dose-only effect, or another doubt; inactive means no such curve, though single readings can be large or run the other way. A potency beside an inconclusive call is a rough fit, not a confirmed value.
Biological target: Polyunsaturated fatty acid lipoxygenase ALOX12 (Homo sapiens) (UniProt P18054)
Experiment: Primary qHTS assay for inhibitors of human arachidonate 12S-lipoxygenase (ALOX12): Round 2
Conditions: purified 12hLO, xylenol orange hydroperoxide absorbance
Procedure, shortened: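 Purified human 12hLO (150 nM final) in 25 mM Hepes, 0.01% Triton X-100, pH 7.0 was preincubated 15 min at room temperature with compound. Then 40 uM arachidonic acid was added, 30 min. Hydroperoxide was read by Fe-XO absorbance ratio 573/405 nm.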

The chains behind the UniProt entries cited, without tags or fusion partners. Where a name states a change or a piece, a line headed by the entry shows the natural chain unless it says otherwise.
UniProt P18054: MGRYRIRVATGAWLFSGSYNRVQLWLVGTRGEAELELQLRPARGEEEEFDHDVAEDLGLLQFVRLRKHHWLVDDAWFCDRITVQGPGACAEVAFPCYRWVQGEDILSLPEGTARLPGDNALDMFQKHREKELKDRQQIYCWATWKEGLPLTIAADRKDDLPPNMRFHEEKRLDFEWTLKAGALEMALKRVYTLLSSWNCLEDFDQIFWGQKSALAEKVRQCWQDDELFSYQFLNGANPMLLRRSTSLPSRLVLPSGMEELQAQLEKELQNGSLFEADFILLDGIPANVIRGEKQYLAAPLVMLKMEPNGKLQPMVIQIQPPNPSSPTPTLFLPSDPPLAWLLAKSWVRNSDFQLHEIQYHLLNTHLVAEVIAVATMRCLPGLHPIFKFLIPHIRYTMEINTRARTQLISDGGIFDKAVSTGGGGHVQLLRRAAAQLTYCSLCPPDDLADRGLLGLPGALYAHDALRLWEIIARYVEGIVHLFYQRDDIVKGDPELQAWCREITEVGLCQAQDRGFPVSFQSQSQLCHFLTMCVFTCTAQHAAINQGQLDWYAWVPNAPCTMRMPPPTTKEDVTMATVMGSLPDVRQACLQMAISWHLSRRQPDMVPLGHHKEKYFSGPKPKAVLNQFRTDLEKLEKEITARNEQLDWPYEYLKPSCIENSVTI

[1] = activity change, negative = inhibition: at 108 µM (top of the series) unless noted
On the % scale 0 is the no-effect control and ±100 the full control effect; potency means the concentration at half of the fitted maximal effect.

SMILES: O=C(c1cc2cc(Br)ccc2o1)c1cc(F)ccc1F
- Potency [1]: inconclusive: 70.8 µM [inhibitor, partial curve, poor fit]

SMILES: O=C(Nc1ccc2c(c1)OCCO2)c1ccc2ccccc2n1
- Potency [1]: inactive

SMILES: Cc1ccc(Cl)cc1-c1cc(C(=O)NCc2ccccc2)[nH]n1
- Potency [1]: inconclusive: 112 µM [inhibitor, partial curve, poor fit]

SMILES: CC(=O)c1ccc(NS(=O)(=O)c2ccc3[nH]c4c(c3c2)CCCCCC4)cc1
- Potency [1]: inconclusive: 89.1 µM [inhibitor, single point]

SMILES: CCOc1ccccc1NC(=O)c1ccc(C)c(S(=O)(=O)Nc2cccc(C)c2C)c1
- Potency [1]: inconclusive: 39.8 µM [inhibitor, partial curve, poor fit]

SMILES: Cc1c(CCC(=O)Nc2nccs2)c(=O)oc2c(C)c(O)ccc12
- Potency [1]: inconclusive: 100 µM [inhibitor, partial curve, poor fit]

SMILES: COCC1CN(S(=O)(=O)c2ccc(C)c(F)c2)CC12CCNCC2 (stereo not given)
- Potency [1]: inactive

SMILES: Cc1ccc(O)c(C(CC(=O)NC2CCCCC2)c2ccccc2)c1 (stereo not given)
- Potency [1]: inactive

SMILES: CN1CCN(CCCN2c3ccccc3Sc3ccc(Cl)cc32)CC1
- Potency [1]: inconclusive: 27.3 µM [inhibitor, single point] and inconclusive: 112 µM [inhibitor, single point]

SMILES: Cc1ccc(NC(=O)/C(=C\c2cccnc2)NC(=O)c2ccco2)cc1
- Potency [1]: inconclusive: 112 µM [inhibitor, partial curve, poor fit]

SMILES: Cc1cc(C)cc(-n2nnc(C(=O)NCc3ccco3)c2N)c1
- Potency [1]: inconclusive: 100 µM [inhibitor, single point]

SMILES: CN1C(=O)N(C)C2(c3ccccc3)Nn3c(s/c(=C/c4ccco4)c3=O)=NC12c1ccccc1 (stereo not given)
- Potency [1]: inconclusive: 35.5 µM [inhibitor, partial curve, poor fit]

SMILES: CC(NCC(O)COc1ccc(Br)cc1)c1ccccc1 (stereo not given)
- Potency [1]: inconclusive: 44.7 µM [inhibitor, partial curve]

SMILES: O=C(C[C@@H]1CCNC[C@@H]1Cc1cc(COc2ccccc2)on1)N1CCC(Cc2ccccc2)CC1
- Potency [1]: inconclusive: 22.4 µM [inhibitor, full curve]

SMILES: O=C(Nc1ccc2c(c1)OCCO2)c1cnc2n(c1=O)CCS2
- Potency [1]: inconclusive: 50.1 µM [inhibitor, partial curve, poor fit]

SMILES: CS(=O)(=O)N(CC(=O)N1CCOCC1)Cc1ccc(Cl)cc1
- Potency [1]: inconclusive: 31.6 µM [inhibitor, single point]

SMILES: Cc1c(NC(=O)c2cc(-c3ccccc3)on2)c(=O)n(-c2ccccc2)n1C
- activity change, negative = inhibition [1]: inconclusive: -33.3% [inhibitor]
- activity change, negative = inhibition (at 108 µM (top of the series)): inactive: -18.7%

SMILES: COc1ccc(NS(=O)(=O)c2ccc(Br)cc2)cn1
- Potency [1]: inactive

SMILES: O=C1S/C(=C\c2ccc(O)c([N+](=O)[O-])c2)C(=O)N1Cc1cccc([N+](=O)[O-])c1
- Potency [1]: inconclusive: 39.8 µM [inhibitor, partial curve, poor fit]

SMILES: C=CCNC(=S)N/N=C/C1=CCC2CC1C2(C)C (stereo not given)
- Potency [1]: inconclusive: 56.2 µM [inhibitor, partial curve, poor fit]

SMILES: CCN(CC)c1ccc(SS(=O)(=O)O)cc1
- Potency [1]: active: 25.1 µM and inconclusive: 25.1 µM [inhibitor, full curve, poor fit]

SMILES: COc1ccc(C(=O)NCCN2CCC(n3c(=O)[nH]c4ccccc43)CC2)cc1F
- Potency [1]: inconclusive: 3.55 µM [inhibitor, full curve, poor fit]

SMILES: COc1ccc(OCC(=O)NNC(=S)NC(=O)c2ccc([N+](=O)[O-])cc2)cc1
- Potency [1]: inconclusive: 50.1 µM [inhibitor, partial curve, poor fit]

SMILES: COc1ccc(C2=NN(C(=O)COC(=O)c3ccc(NC(=O)CC#N)cc3)C(c3ccco3)C2)cc1 (stereo not given)
- Potency [1]: inconclusive: 3.98 µM [inhibitor, full curve, poor fit]

SMILES: Cc1ccc([C@@H]2CC=C(C(=O)O)[C@H](c3cccc(Cl)c3)N2S(=O)(=O)c2ccc(C)cc2)cc1
- Potency [1]: inconclusive: 8.91 µM [inhibitor, partial curve, poor fit]

SMILES: CN(CC1CCOC1)S(=O)(=O)Cc1ccccc1Cl (stereo not given)
- Potency [1]: inactive

SMILES: COc1ccc(C(c2nnnn2CC2CCCO2)N2CCN(c3ccccc3)CC2)cc1 (stereo not given)
- Potency [1]: inactive

SMILES: COCCc1nncn1C1CCN(C(=O)c2ccc(C)cc2)CC1
- Potency [1]: inactive

SMILES: CCN(CC)c1ccc(NC(=O)c2cnn3c(C(F)F)cc(-c4ccccc4)nc23)cc1
- Potency [1]: inconclusive: 112 µM [inhibitor, partial curve, poor fit]

SMILES: O=C(NCC1(O)CCCNCC1)c1cccc(-c2ccc(F)cc2)c1 (stereo not given)
- Potency [1]: inconclusive: 3.16 µM [inhibitor, full curve]

SMILES: COc1ccc(Cl)cc1NC(=O)C1CCN(c2ncnc3c2nc2n3CCCCC2)CC1
- Potency [1]: inconclusive: 50.1 µM [inhibitor, partial curve, poor fit]

SMILES: Cc1cc(C)nc(NC(=O)c2ccc(C)c(C)c2)n1
- Potency [1]: inconclusive: 31.6 µM [inhibitor, partial curve, poor fit]

SMILES: CCC(C)C(NC(N)=O)C(=O)Nc1ccc(S(=O)(=O)Nc2ccc(OC)cc2)cc1 (stereo not given)
- Potency [1]: inconclusive: 89.1 µM [inhibitor, partial curve, poor fit]

SMILES: CCCNc1nc(-c2cc(C(=O)Nc3ccccc3)on2)cc(C(C)C)n1
- Potency [1]: inactive

SMILES: CC(C)[C@H](NC(=O)Cc1ccccc1)C(=O)O
- Potency [1]: inactive

SMILES: O=C(NCCc1ccco1)C1CC(=O)N(c2n[nH]c3cc(Br)ccc23)C1 (stereo not given)
- Potency [1]: inconclusive: 70.8 µM [inhibitor, single point]

SMILES: CCCCOCP(=O)(CCCC)COCCCC
- Potency [1]: inconclusive: 17.8 µM [inhibitor, partial curve, poor fit]

SMILES: COc1ccc(CNc2ccnc(-c3ccc(N(C)C)cc3)n2)c(OC)c1
- Potency [1]: inconclusive: 28.2 µM [inhibitor, partial curve, poor fit]

SMILES: CN(C)c1c(N)[nH]c2c(c1=O)c(=O)n(C)c(=O)n2C
- Potency [1]: inconclusive: 44.7 µM [inhibitor, partial curve, poor fit]

— PubChem BioAssay AID1671190 (National Center for Advancing Translational Sciences (NCATS), 2021)
